The supplement of paper PMC10849652
Some of the results follow.

Sequences of proteins named here, by UniProt entry; tags and fusion partners are left off. A change or cut given only in a name is not applied to a line headed by its entry.
UniProt Q9BUJ2: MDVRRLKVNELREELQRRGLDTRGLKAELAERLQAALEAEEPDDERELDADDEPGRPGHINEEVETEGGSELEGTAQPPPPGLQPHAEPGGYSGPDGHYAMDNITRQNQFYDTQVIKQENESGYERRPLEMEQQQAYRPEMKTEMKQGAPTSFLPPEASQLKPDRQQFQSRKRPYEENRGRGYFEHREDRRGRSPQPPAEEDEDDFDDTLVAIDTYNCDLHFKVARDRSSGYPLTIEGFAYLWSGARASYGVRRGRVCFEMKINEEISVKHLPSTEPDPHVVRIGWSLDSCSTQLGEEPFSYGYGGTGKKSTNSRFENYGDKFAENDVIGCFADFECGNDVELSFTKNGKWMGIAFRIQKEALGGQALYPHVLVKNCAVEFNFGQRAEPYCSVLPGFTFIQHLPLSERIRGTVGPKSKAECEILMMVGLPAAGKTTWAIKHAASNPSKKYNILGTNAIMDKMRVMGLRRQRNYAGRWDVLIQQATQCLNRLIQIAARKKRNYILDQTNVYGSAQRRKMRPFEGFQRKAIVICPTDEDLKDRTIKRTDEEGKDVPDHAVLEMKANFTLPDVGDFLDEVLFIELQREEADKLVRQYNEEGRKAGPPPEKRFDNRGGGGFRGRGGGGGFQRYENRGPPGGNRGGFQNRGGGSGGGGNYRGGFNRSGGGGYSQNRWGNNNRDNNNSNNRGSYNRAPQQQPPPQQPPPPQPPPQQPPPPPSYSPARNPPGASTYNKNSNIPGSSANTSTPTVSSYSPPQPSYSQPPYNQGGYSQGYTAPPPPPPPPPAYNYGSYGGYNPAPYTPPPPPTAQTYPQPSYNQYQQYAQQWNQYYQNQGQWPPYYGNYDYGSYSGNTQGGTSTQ
UniProt P09651: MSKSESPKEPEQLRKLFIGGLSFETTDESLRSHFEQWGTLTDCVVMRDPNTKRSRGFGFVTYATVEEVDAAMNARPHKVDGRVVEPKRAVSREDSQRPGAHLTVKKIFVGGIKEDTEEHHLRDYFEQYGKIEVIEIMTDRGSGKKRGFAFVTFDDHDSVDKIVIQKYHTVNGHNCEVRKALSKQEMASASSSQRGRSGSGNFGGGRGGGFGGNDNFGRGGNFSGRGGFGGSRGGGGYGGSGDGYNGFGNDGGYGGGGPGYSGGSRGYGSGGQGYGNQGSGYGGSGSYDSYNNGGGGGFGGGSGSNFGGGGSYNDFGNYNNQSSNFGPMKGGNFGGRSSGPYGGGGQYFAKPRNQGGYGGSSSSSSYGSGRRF
UniProt P42694: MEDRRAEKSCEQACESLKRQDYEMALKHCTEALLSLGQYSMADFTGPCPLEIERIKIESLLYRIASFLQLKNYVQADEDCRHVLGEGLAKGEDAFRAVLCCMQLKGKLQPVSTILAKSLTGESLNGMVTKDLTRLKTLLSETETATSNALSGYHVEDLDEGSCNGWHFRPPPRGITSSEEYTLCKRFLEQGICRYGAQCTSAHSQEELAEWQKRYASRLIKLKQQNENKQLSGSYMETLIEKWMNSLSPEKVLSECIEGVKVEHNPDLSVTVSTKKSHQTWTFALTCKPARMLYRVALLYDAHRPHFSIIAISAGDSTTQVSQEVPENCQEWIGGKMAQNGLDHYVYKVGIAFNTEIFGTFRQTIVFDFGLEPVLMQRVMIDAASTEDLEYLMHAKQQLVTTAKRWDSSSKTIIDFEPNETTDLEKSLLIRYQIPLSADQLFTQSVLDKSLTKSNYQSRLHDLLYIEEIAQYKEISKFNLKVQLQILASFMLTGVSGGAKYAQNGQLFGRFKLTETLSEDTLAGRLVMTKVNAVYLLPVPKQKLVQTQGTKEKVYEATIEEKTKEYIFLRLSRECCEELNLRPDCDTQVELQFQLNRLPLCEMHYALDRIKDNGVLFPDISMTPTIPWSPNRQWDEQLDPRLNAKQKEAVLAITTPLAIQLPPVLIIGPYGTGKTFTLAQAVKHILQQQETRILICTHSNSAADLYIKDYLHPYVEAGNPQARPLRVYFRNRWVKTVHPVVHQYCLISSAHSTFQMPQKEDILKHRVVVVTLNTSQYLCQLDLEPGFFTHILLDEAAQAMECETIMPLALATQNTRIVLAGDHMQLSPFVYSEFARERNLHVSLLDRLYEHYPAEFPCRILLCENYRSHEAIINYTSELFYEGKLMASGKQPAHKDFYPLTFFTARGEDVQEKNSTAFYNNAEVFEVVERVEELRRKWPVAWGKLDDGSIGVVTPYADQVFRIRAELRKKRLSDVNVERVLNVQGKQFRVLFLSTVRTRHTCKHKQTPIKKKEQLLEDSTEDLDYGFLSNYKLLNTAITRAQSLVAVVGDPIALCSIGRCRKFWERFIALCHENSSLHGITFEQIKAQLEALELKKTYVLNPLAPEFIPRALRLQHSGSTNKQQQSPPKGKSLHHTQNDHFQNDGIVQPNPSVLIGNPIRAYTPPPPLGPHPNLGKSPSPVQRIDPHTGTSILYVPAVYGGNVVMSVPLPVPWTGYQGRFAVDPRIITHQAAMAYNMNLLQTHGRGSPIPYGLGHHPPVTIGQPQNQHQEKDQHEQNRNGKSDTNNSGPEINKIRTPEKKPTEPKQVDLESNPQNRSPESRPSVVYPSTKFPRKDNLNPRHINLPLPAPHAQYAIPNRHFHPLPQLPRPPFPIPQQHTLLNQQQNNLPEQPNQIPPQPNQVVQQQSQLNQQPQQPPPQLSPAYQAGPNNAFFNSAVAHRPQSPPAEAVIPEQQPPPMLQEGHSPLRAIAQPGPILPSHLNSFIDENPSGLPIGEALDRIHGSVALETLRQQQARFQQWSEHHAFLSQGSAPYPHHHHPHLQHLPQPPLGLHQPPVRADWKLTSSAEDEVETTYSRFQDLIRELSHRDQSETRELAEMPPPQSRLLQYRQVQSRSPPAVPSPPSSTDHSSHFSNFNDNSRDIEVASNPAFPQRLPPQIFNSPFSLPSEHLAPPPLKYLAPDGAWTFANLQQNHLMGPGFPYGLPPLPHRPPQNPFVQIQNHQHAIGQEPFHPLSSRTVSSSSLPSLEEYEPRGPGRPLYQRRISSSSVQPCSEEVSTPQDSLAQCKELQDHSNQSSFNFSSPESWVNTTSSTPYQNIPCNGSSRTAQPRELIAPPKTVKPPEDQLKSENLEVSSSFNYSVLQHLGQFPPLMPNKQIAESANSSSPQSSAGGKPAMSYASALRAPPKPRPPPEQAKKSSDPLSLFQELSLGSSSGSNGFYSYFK
UniProt Q7LGA3: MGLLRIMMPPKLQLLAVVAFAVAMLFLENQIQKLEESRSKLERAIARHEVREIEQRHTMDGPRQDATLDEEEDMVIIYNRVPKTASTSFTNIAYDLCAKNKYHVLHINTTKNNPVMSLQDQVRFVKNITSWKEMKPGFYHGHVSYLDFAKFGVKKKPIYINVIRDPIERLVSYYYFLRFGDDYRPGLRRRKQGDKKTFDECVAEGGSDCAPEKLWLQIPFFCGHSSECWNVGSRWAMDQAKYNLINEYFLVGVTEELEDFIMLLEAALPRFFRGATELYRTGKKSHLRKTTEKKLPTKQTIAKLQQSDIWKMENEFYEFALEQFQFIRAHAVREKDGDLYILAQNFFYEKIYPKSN
UniProt P35914: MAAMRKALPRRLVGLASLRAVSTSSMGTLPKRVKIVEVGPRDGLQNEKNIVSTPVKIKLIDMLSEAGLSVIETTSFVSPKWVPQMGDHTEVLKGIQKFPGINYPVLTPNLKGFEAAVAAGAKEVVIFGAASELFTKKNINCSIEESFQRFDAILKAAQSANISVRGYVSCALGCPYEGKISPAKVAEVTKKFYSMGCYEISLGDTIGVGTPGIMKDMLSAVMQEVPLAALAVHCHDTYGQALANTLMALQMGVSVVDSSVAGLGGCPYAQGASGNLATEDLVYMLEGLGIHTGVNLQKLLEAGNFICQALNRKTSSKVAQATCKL
UniProt P00492: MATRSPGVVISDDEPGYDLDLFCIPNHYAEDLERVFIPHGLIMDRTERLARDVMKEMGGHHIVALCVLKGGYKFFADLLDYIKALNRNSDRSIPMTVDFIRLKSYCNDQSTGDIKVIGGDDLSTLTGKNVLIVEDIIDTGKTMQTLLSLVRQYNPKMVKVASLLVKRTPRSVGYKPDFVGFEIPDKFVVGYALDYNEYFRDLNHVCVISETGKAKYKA
UniProt P09429: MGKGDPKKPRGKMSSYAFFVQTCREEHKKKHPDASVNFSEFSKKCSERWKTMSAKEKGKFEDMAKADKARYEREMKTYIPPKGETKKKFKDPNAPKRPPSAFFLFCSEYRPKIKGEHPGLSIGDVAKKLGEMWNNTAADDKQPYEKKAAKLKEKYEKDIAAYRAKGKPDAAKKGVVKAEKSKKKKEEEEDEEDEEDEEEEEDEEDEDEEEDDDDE

Legend:
Assay in all cases: log2 fold change, soluble protein after heating vs DMSO (PISA); higher = thermal stabilisation; K562 lysate, 10 uM; active = over 0.2 and 3.5 SD of the protein, either way, in both replicates (recomputed)
lapatinib = compound: CS(=O)(=O)CCNCc1ccc(-c2ccc3ncnc(Nc4ccc(OCc5cccc(F)c5)c(Cl)c4)c3c2)o1 [lapatinib]
Method in brief: (§1)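 To prepare the extract, K562 pellets were dounce-homogenised in PBS pH 7.4 with 1 mM MgCl2, giving crude material at 1 mg/mL protein. This was treated with 10 μM compound for 30 min, then heated in aliquots for 3 min over 48°C-58°C before pooling and addition of NP-40 to 0.5% at 4°C. Centrifugation at 21,000xg for 90 min left soluble protein in the supernatant, which TMTpro 16plex LC-MS/MS quantified with equalised channel sums. Results are log-two fold changes in thermal stability compared with solvent controls, from duplicates.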

pictilisib = compound: CS(=O)(=O)N1CCN(Cc2cc3nc(-c4cccc5[nH]ncc45)nc(N4CCOCC4)c3s2)CC1 [pictilisib]
Method in brief: as §1

crizotinib = compound: C[C@@H](Oc1cc(-c2cnn(C3CCNCC3)c2)cnc1N)c1c(Cl)ccc(F)c1Cl [crizotinib]
Method in brief: as §1

[1] = compound: C[C@H](C1=CC=C(C=C1)C(=O)NC2=C3C=CNC3=NC=C2)N
Method in brief: as §1

duvelisib = compound: C[C@H](Nc1ncnc2nc[nH]c12)c1cc2cccc(Cl)c2c(=O)n1-c1ccccc1 [duvelisib]
Method in brief: as §1

gandotinib = compound: Cc1cc(Nc2cc(CN3CCOCC3)c3nc(C)c(Cc4ccc(Cl)cc4F)n3n2)n[nH]1 [gandotinib]
Method in brief: as §1

tozasertib = compound: Cc1cc(Nc2cc(N3CCN(C)CC3)nc(Sc3ccc(NC(=O)C4CC4)cc3)n2)n[nH]1 [tozasertib]
Method in brief: as §1

doramapimod = compound: Cc1ccc(-n2nc(C(C)(C)C)cc2NC(=O)Nc2ccc(OCCN3CCOCC3)c3ccccc23)cc1 [doramapimod]
Method in brief: as §1

bafetinib = compound: Cc1ccc(NC(=O)c2ccc(CN3CC[C@H](N(C)C)C3)c(C(F)(F)F)c2)cc1Nc1nccc(-c2cncnc2)n1 [bafetinib]
Method in brief: as §1

[2] = compound: Cc1cccc(CC(=O)N2CCc3c2ccc(-c2cn(C)c4ncnc(N)c24)c3F)n1
Method in brief: as §1

nilotinib = compound: Cc1cn(-c2cc(NC(=O)c3ccc(C)c(Nc4nccc(-c5cccnc5)n4)c3)cc(C(F)(F)F)c2)cn1 [nilotinib]
Method in brief: as §1

[3] = compound: Cc1nc(Nc2n[nH]c3c2CN(C(=O)N[C@H](CN(C)C)c2ccccc2)C3(C)C)c2sccc2n1
Method in brief: as §1

dasatinib = compound: Cc1nc(Nc2ncc(C(=O)Nc3c(C)cccc3Cl)s2)cc(N2CCN(CCO)CC2)n1 [dasatinib]
Method in brief: as §1

[4] = compound: Cc1ncc(-c2ccnc(Nc3ccc(S(C)(=O)=O)cc3)n2)n1C(C)C
Method in brief: as §1

[5] = compound: Cn1cc(-c2ccc3c(c2)CCN3C(=O)Cc2cccc(C(F)(F)F)c2)c2c(N)ncnc21
Method in brief: as §1

quisinostat = compound: Cn1cc(CNCC2CCN(c3ncc(C(=O)NO)cn3)CC2)c2ccccc21 [quisinostat]
Method in brief: as §1

tipifarnib = compound: Cn1cncc1[C@@](N)(c1ccc(Cl)cc1)c1ccc2c(c1)c(-c1cccc(Cl)c1)cc(=O)n2C [tipifarnib]
Method in brief: as §1

[6] = compound: NC(=O)Nc1cc(-c2cccc(F)c2)sc1C(=O)N[C@H]1CCCNC1
Method in brief: as §1

[7] = compound: NC(=O)c1cnc(N[C@@H]2CCCC[C@@H]2N)nc1Nc1cccc(-n2nccn2)c1
Method in brief: as §1

[8] = compound: NC1(c2ccc(-c3nc4ccn5c(=O)[nH]nc5c4cc3-c3ccccc3)cc2)CCC1
Method in brief: as §1

HNRNPUL1 (UniProt Q9BUJ2)
log2 fold change (lapatinib): inactive: -0.008
log2 fold change (pictilisib): inactive: -0.05
log2 fold change (crizotinib): inactive: 0.043
log2 fold change [1]: inactive: 0.005
log2 fold change (duvelisib): inactive: 0.01
log2 fold change (gandotinib): inactive: -0.013
log2 fold change (tozasertib): inactive: 0.012
log2 fold change (doramapimod): inactive: -0.107
log2 fold change (bafetinib): inactive: 0.051
log2 fold change [2]: inactive: -0.023
log2 fold change (nilotinib): active: -0.291
log2 fold change [3]: inactive: 0.018
log2 fold change (dasatinib): inactive: -0.012
log2 fold change [4]: inactive: 0.006
log2 fold change [5]: inactive: 0.01
log2 fold change (quisinostat): inactive: 0.015
log2 fold change (tipifarnib): inactive: 0.019
log2 fold change [6]: inactive: 0.045
log2 fold change [7]: inactive: -0.003
log2 fold change [8]: inactive: -0.009

HNRNPA1 (UniProt P09651)
log2 fold change (lapatinib): inactive: -0.02
log2 fold change (pictilisib): inactive: -0.026
log2 fold change (crizotinib): inactive: 0.003
log2 fold change [1]: inactive: 0.116
log2 fold change (duvelisib): inactive: 0.004
log2 fold change (gandotinib): inactive: -0.038
log2 fold change (tozasertib): inactive: -0.017
log2 fold change (doramapimod): inactive: -0.031
log2 fold change (bafetinib): inactive: 0.102
log2 fold change [2]: inactive: 0.006
log2 fold change (nilotinib): inactive: -0.002
log2 fold change [3]: inactive: -0.057
log2 fold change (dasatinib): inactive: 0.027
log2 fold change [4]: inactive: 0.001
log2 fold change [5]: inactive: 0.023
log2 fold change (quisinostat): inactive: 0.019
log2 fold change (tipifarnib): inactive: 0.011
log2 fold change [6]: inactive: 0.007
log2 fold change [7]: inactive: -0.003
log2 fold change [8]: inactive: 0.005

HELZ (UniProt P42694)
log2 fold change (lapatinib): inactive: -0.018
log2 fold change (pictilisib): inactive: -0.085
log2 fold change (crizotinib): inactive: -0.001
log2 fold change [1]: inactive: -0.058
log2 fold change (duvelisib): inactive: -0.002
log2 fold change (gandotinib): inactive: 0.051
log2 fold change (tozasertib): inactive: 0.036
log2 fold change (doramapimod): inactive: -0.168
log2 fold change (bafetinib): inactive: -0.1
log2 fold change [2]: inactive: 0.092
log2 fold change (nilotinib): inactive: -0.006
log2 fold change [3]: inactive: 0.01
log2 fold change (dasatinib): inactive: -0.043
log2 fold change [4]: inactive: -0.015
log2 fold change [5]: inactive: 0.079
log2 fold change (quisinostat): inactive: -0.045
log2 fold change (tipifarnib): inactive: -0.028
log2 fold change [6]: inactive: 0.065
log2 fold change [7]: inactive: -0.11
log2 fold change [8]: inactive: -0.018

HS2ST1 (UniProt Q7LGA3)
log2 fold change (lapatinib): inactive: 0.045
log2 fold change (pictilisib): inactive: 0.022
log2 fold change (crizotinib): inactive: -0.007
log2 fold change [1]: inactive: 0.003
log2 fold change (duvelisib): inactive: 0.01
log2 fold change (gandotinib): inactive: -0.008
log2 fold change (tozasertib): inactive: -0.05
log2 fold change (doramapimod): inactive: 0.016
log2 fold change (bafetinib): inactive: 0.059
log2 fold change [2]: inactive: 0.023
log2 fold change (nilotinib): inactive: 0.025
log2 fold change [3]: inactive: 0.1
log2 fold change (dasatinib): inactive: 0.034
log2 fold change [4]: inactive: -0.063
log2 fold change [5]: inactive: -0.039
log2 fold change (quisinostat): inactive: 0.075
log2 fold change (tipifarnib): inactive: -0.021
log2 fold change [6]: inactive: 0.01
log2 fold change [7]: inactive: -0.004
log2 fold change [8]: inactive: 0.016

HMGCL (UniProt P35914)
log2 fold change (lapatinib): inactive: -0.005
log2 fold change (pictilisib): inactive: -0.029
log2 fold change (crizotinib): inactive: 0.012
log2 fold change [1]: inactive: 0.033
log2 fold change (duvelisib): inactive: 0.002
log2 fold change (gandotinib): inactive: -0.029
log2 fold change (tozasertib): inactive: 0.026
log2 fold change (doramapimod): inactive: 0.008
log2 fold change (bafetinib): inactive: -0.016
log2 fold change [2]: inactive: -0.031
log2 fold change (nilotinib): inactive: 0.011
log2 fold change [3]: inactive: -0.041
log2 fold change (dasatinib): inactive: 0.029
log2 fold change [4]: inactive: 0.023
log2 fold change [5]: inactive: 0.02
log2 fold change (quisinostat): inactive: -0.017
log2 fold change (tipifarnib): inactive: -0.013
log2 fold change [6]: inactive: 0.018
log2 fold change [7]: inactive: -0.033
log2 fold change [8]: inactive: 0.015

HPRT1 (UniProt P00492)
log2 fold change (lapatinib): inactive: 0.013
log2 fold change (pictilisib): inactive: 0
log2 fold change (crizotinib): inactive: 0.04
log2 fold change [1]: inactive: -0.002
log2 fold change (duvelisib): inactive: 0.011
log2 fold change (gandotinib): inactive: 0.007
log2 fold change (tozasertib): inactive: -0.007
log2 fold change (doramapimod): inactive: 0.003
log2 fold change (bafetinib): inactive: 0.059
log2 fold change [2]: inactive: -0.02
log2 fold change (nilotinib): inactive: -0.027
log2 fold change [3]: inactive: 0.022
log2 fold change (dasatinib): inactive: 0.02
log2 fold change [4]: inactive: -0.033
log2 fold change [5]: inactive: 0.004
log2 fold change (quisinostat): inactive: 0.017
log2 fold change (tipifarnib): inactive: 0.046
log2 fold change [6]: inactive: -0.018
log2 fold change [7]: inactive: -0.001
log2 fold change [8]: inactive: 0.049

HSP90AA1 isoform 2 (UniProt P07900)
log2 fold change (lapatinib): inactive: -0.007
log2 fold change (pictilisib): inactive: 0.009
log2 fold change (crizotinib): inactive: 0.011
log2 fold change [1]: inactive: 0.08
log2 fold change (duvelisib): inactive: 0.007
log2 fold change (gandotinib): inactive: -0.063
log2 fold change (tozasertib): inactive: 0.005
log2 fold change (doramapimod): inactive: -0.029
log2 fold change (bafetinib): inactive: 0.024
log2 fold change [2]: inactive: -0.046
log2 fold change (nilotinib): inactive: 0.004
log2 fold change [3]: inactive: 0.001
log2 fold change (dasatinib): inactive: 0.012
log2 fold change [4]: inactive: 0.01
log2 fold change [5]: inactive: -0.002
log2 fold change (quisinostat): inactive: 0.017
log2 fold change (tipifarnib): inactive: 0.011
log2 fold change [6]: inactive: 0.003
log2 fold change [7]: inactive: -0.008
log2 fold change [8]: inactive: 0.012

HMGB1 (UniProt P09429)
log2 fold change (lapatinib): inactive: 0.017
log2 fold change (pictilisib): inactive: 0.02
log2 fold change (crizotinib): inactive: -0.024
log2 fold change [1]: active: 0.304
log2 fold change (duvelisib): inactive: 0.028
log2 fold change (gandotinib): inactive: -0.097
log2 fold change (tozasertib): inactive: 0.03
log2 fold change (doramapimod): inactive: -0.014
log2 fold change (bafetinib): inactive: 0.079
log2 fold change [2]: inactive: -0.154
log2 fold change (nilotinib): inactive: 0.056
log2 fold change [3]: inactive: -0.002
log2 fold change (dasatinib): inactive: 0.03
log2 fold change [4]: inactive: 0.064
log2 fold change [5]: inactive: -0.03
log2 fold change (quisinostat): inactive: 0.108
log2 fold change (tipifarnib): inactive: 0.026
log2 fold change [6]: inactive: -0.021
log2 fold change [7]: inactive: 0
log2 fold change [8]: inactive: -0.011
